45 sequences from patent US20140350088 can be followed below.

The chains behind the UniProt entries cited, without tags or fusion partners. Residues count along the entry.
UniProt P01275, 53-81: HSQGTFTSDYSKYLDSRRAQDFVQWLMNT

This data set has as its target biotinylated human glucagon (Homo sapiens) (UniProt P01275). The data set is described as follows: SPR. The conditions noted are these: synthetic protein, mirror-image nucleic acid.

For at least one entry, the source does not settle the construct or the ends of the probe. Weaker means in comparison with the reference protein, sequence or condition of that experiment.

For “ACTCGAGAGGAAAGGUTGGTAAAGGTTCGGTTGGATTCACTCGAGT [259-H6-002-R16]”, the binding result (L-DNA, rU at 16, reduced or lost vs parent, 37 C, synthetic backbone) is on record as “binds more weakly”.

“ACUCGAGAGGAAAGGTTGGTAAAGGTTCGGTTGGATTCACTCGAGT [259-H6-002-R03]”: the binding result (L-DNA, rU at 3, reduced or lost binding vs parent, variant of 259-H6-002) is reported as “binds more weakly”.

As to “CAGACGTGUGUGGGUAGAUGCACCUGCGAUUCGCUAAAAAGUGCCACACGUCUG [NOX-G11-D07]”, the binding result (L-RNA, dT at 7, improved vs parent, among best, variant of NOX-G11stabi2) is on record as “binds”.

“CAGACGUGTGUGGGUAGAUGCACCUGCGAUUCGCUAAAAAGUGCCACACGUCUG [NOX-G11-D09]”: where the note is “L-RNA, dT at 9, improved vs parent, 37 C, synthetic backbone”, the binding result is reported as “binds”.

As for “CAGACGUGUGTGGGUAGAUGCACCUGCGAUUCGCUAAAAAGUGCCACACGUCUG [NOX-G11-D11]”, the binding result (L-RNA, dT at 11, unchanged vs parent, 37 C, synthetic backbone) is reported as “binds”.

With “CAGACGUGUGUGGGTAGAUGCACCUGCGAUUCGCUAAAAAGUGCCACACGUCUG [NOX-G11-D15]”, the binding result (L-RNA, dT at 15, improved vs parent, 37 C, synthetic backbone) was “binds”.

Turning to “CAGACGUGUGUGGGUAGATGCACCUGCGAUUCGCUAAAAAGUGCCACACGUCUG [NOX-G11-D19]”, the binding result (L-RNA, dT at 19, improved vs parent, among best, variant of NOX-G11stabi2) was “binds”.

With “CAGACGUGUGUGGGUAGAUGCACCTGCGAUUCGCUAAAAAGUGCCACACGUCUG [NOX-G11-D25]”, where the note is “L-RNA, dT at 25, improved vs parent, 37 C, synthetic backbone”, the binding result is reported as “binds”.

On to “CAGACGUGUGUGGGUAGAUGCACCUGCGATUCGCUAAAAAGUGCCACACGUCUG [NOX-G11-D30]”, for which the binding result (L-RNA, dT at 30, improved vs parent, 37 C, synthetic backbone) is recorded as “binds”.

Regarding “CAGACGUGUGUGGGUAGAUGCACCUGCGAUTCGCUAAAAAGUGCCACACGUCUG [NOX-G11-D31]”, the binding result (L-RNA, dT at 31, unchanged vs parent, 37 C, synthetic backbone) is listed as “binds”.

“CAGACGUGUGUGGGUAGAUGCACCUGCGAUUCGCTAAAAAGUGCCACACGUCUG [NOX-G11-D35]”: under “L-RNA, dT at 35, unchanged vs parent, 37 C, synthetic backbone”, the binding result was “binds”.

In the case of “CAGACGUGUGUGGGUAGAUGCACCUGCGAUUCGCUAAAAAGTGCCACACGUCUG [NOX-G11-D42]”, the binding result (L-RNA, dT at 42, reduced or lost binding vs parent, variant of NOX-G11stabi2) is “binds more weakly”.

For the sequence “CAGACGUGUGUGGGUAGAUGCACCUGCGAUUCGCUAAAAAGUGCCACACGTCUG [NOX-G11-D51]”, the binding result (L-RNA, dT at 51, reduced or lost binding vs parent, variant of NOX-G11stabi2) is reported as “binds more weakly”.

“CAGACGUGUGUGGGUAGAUGCACCUGCGAUUCGCUAAAAAGUGCCACACGUCTG [NOX-G11-D53]”: the binding result (L-RNA, dT at 53, improved vs parent, 37 C, synthetic backbone) is recorded as “binds”.

Consider “CAGACGUGUGUGGGUAGAUGCACCUGCGAUUCGCUAAAAAGUGCCACACGUCUG [NOX-G11-D01]”, for which, under “L-RNA, 2'-deoxy at 1, improved vs parent, 37 C, synthetic backbone”, the binding result is “binds”.

Consider “CAGACGUGUGUGGGUAGAUGCACCUGCGAUUCGCUAAAAAGUGCCACACGUCUG [NOX-G11-D02]”, for which the binding result (L-RNA, 2'-deoxy at 2, improved vs parent, 37 C, synthetic backbone) is “binds”.

As to “CAGACGUGUGUGGGUAGAUGCACCUGCGAUUCGCUAAAAAGUGCCACACGUCUG [NOX-G11-D03]”, the binding result (L-RNA, 2'-deoxy at 3, improved vs parent, 37 C, synthetic backbone) is given as “binds”.

Consider “CAGACGUGUGUGGGUAGAUGCACCUGCGAUUCGCUAAAAAGUGCCACACGUCUG [NOX-G11-D04]”, for which, under “L-RNA, 2'-deoxy at 4, improved vs parent, 37 C, synthetic backbone”, the binding result is “binds”.

Regarding “CAGACGUGUGUGGGUAGAUGCACCUGCGAUUCGCUAAAAAGUGCCACACGUCUG [NOX-G11-D05]”, under “L-RNA, 2'-deoxy at 5, improved vs parent, 37 C, synthetic backbone”, the binding result is given as “binds”.

For the sequence “CAGACGUGUGUGGGUAGAUGCACCUGCGAUUCGCUAAAAAGUGCCACACGUCUG [NOX-G11-D06]”, the binding result (L-RNA, 2'-deoxy at 6, improved vs parent, 37 C, synthetic backbone) is “binds”.

On to “CAGACGUGUGUGGGUAGAUGCACCUGCGAUUCGCUAAAAAGUGCCACACGUCUG [NOX-G11-D08]”, for which, for the setting “L-RNA, 2'-deoxy at 8, improved vs parent, 37 C, synthetic backbone”, the binding result is “binds”.

Regarding “CAGACGUGUGUGGGUAGAUGCACCUGCGAUUCGCUAAAAAGUGCCACACGUCUG [NOX-G11-D10]”, for the setting “L-RNA, 2'-deoxy at 10, improved vs parent, 37 C, synthetic backbone”, the binding result is listed as “binds”.

Take “CAGACGUGUGUGGGUAGAUGCACCUGCGAUUCGCUAAAAAGUGCCACACGUCUG [NOX-G11-D12]”: the binding result (L-RNA, 2'-deoxy at 12, improved vs parent, 37 C, synthetic backbone) is reported as “binds”.

Turning to “CAGACGUGUGUGGGUAGAUGCACCUGCGAUUCGCUAAAAAGUGCCACACGUCUG [NOX-G11-D13]”, the binding result (L-RNA, 2'-deoxy at 13, improved vs parent, 37 C, synthetic backbone) is on record as “binds”.

Turning to “CAGACGUGUGUGGGUAGAUGCACCUGCGAUUCGCUAAAAAGUGCCACACGUCUG [NOX-G11-D14]”, under “L-RNA, 2'-deoxy at 14, improved vs parent, 37 C, synthetic backbone”, the binding result is “binds”.

For the sequence “CAGACGUGUGUGGGUAGAUGCACCUGCGAUUCGCUAAAAAGUGCCACACGUCUG [NOX-G11-D16]”, the binding result (L-RNA, dA at 16, improved vs parent, among best, variant of NOX-G11stabi2) is on record as “binds”.

For “CAGACGUGUGUGGGUAGAUGCACCUGCGAUUCGCUAAAAAGUGCCACACGUCUG [NOX-G11-D17]”, the binding result (L-RNA, 2'-deoxy at 17, unchanged vs parent, 37 C, synthetic backbone) was “binds”.

Consider “CAGACGUGUGUGGGUAGAUGCACCUGCGAUUCGCUAAAAAGUGCCACACGUCUG [NOX-G11-D18]”, for which, where the note is “L-RNA, 2'-deoxy at 18, improved vs parent, 37 C, synthetic backbone”, the binding result is “binds”.

For the sequence “CAGACGUGUGUGGGUAGAUGCACCUGCGAUUCGCUAAAAAGUGCCACACGUCUG [NOX-G11-D20]”, the binding result (L-RNA, 2'-deoxy at 20, improved vs parent, 37 C, synthetic backbone) was “binds”.

Regarding “CAGACGUGUGUGGGUAGAUGCACCUGCGAUUCGCUAAAAAGUGCCACACGUCUG [NOX-G11-D21]”, the binding result (L-RNA, dC at 21, improved vs parent, among best, variant of NOX-G11stabi2) is listed as “binds”.

“CAGACGUGUGUGGGUAGAUGCACCUGCGAUUCGCUAAAAAGUGCCACACGUCUG [NOX-G11-D22]”: for the setting “L-RNA, dA at 22, improved vs parent, among best, variant of NOX-G11stabi2”, the binding result was “binds”.

As for “CAGACGUGUGUGGGUAGAUGCACCUGCGAUUCGCUAAAAAGUGCCACACGUCUG [NOX-G11-D23]”, the binding result (L-RNA, 2'-deoxy at 23, improved vs parent, 37 C, synthetic backbone) is recorded as “binds”.

As to “CAGACGUGUGUGGGUAGAUGCACCUGCGAUUCGCUAAAAAGUGCCACACGUCUG [NOX-G11-D24]”, under “L-RNA, 2'-deoxy at 24, improved vs parent, 37 C, synthetic backbone”, the binding result is on record as “binds”.

As to “CAGACGUGUGUGGGUAGAUGCACCUGCGAUUCGCUAAAAAGUGCCACACGUCUG [NOX-G11-D26]”, under “L-RNA, 2'-deoxy at 26, improved vs parent, 37 C, synthetic backbone”, the binding result is recorded as “binds”.

Take “CAGACGUGUGUGGGUAGAUGCACCUGCGAUUCGCUAAAAAGUGCCACACGUCUG [NOX-G11-D27]”: under “L-RNA, 2'-deoxy at 27, improved vs parent, 37 C, synthetic backbone”, the binding result was “binds”.

For the sequence “CAGACGUGUGUGGGUAGAUGCACCUGCGAUUCGCUAAAAAGUGCCACACGUCUG [NOX-G11-D28]”, under “L-RNA, 2'-deoxy at 28, improved vs parent, 37 C, synthetic backbone”, the binding result is given as “binds”.

Consider “CAGACGUGUGUGGGUAGAUGCACCUGCGAUUCGCUAAAAAGUGCCACACGUCUG [NOX-G11-D29]”, for which the binding result (L-RNA, 2'-deoxy at 29, improved vs parent, 37 C, synthetic backbone) is reported as “binds”.

For “CAGACGUGUGUGGGUAGAUGCACCUGCGAUUCGCUAAAAAGUGCCACACGUCUG [NOX-G11-D32]”, under “L-RNA, 2'-deoxy at 32, improved vs parent, 37 C, synthetic backbone”, the binding result was “binds”.

Regarding “CAGACGUGUGUGGGUAGAUGCACCUGCGAUUCGCUAAAAAGUGCCACACGUCUG [NOX-G11-D33]”, the binding result (L-RNA, 2'-deoxy at 33, unchanged vs parent, 37 C, synthetic backbone) is reported as “binds”.

Turning to “CAGACGUGUGUGGGUAGAUGCACCUGCGAUUCGCUAAAAAGUGCCACACGUCUG [NOX-G11-D34]”, the binding result (L-RNA, 2'-deoxy at 34, unchanged vs parent, 37 C, synthetic backbone) is reported as “binds”.

As for “CAGACGUGUGUGGGUAGAUGCACCUGCGAUUCGCUAAAAAGUGCCACACGUCUG [NOX-G11-D36]”, where the note is “L-RNA, 2'-deoxy at 36, improved vs parent, 37 C, synthetic backbone”, the binding result is on record as “binds”.

For “CAGACGUGUGUGGGUAGAUGCACCUGCGAUUCGCUAAAAAGUGCCACACGUCUG [NOX-G11-D37]”, the binding result (L-RNA, dA at 37, reduced or lost binding vs parent, variant of NOX-G11stabi2) is on record as “binds more weakly”.

As for “CAGACGUGUGUGGGUAGAUGCACCUGCGAUUCGCUAAAAAGUGCCACACGUCUG [NOX-G11-D38]”, the binding result (L-RNA, 2'-deoxy at 38, improved vs parent, 37 C, synthetic backbone) was “binds”.

Consider “CAGACGUGUGUGGGUAGAUGCACCUGCGAUUCGCUAAAAAGUGCCACACGUCUG [NOX-G11-D39]”, for which the binding result (L-RNA, 2'-deoxy at 39, unchanged vs parent, 37 C, synthetic backbone) was “binds”.

Regarding “CAGACGUGUGUGGGUAGAUGCACCUGCGAUUCGCUAAAAAGUGCCACACGUCUG [NOX-G11-D40]”, where the note is “L-RNA, 2'-deoxy at 40, unchanged vs parent, 37 C, synthetic backbone”, the binding result is “binds”.
